This note sets out measurements from paper PMC8904830, “Differential recognition of canonical NF-κB dimers by Importin α3” (Nature Communications, 2022).

Amino acid sequences for entries named in this document (tags omitted). A change or cut given only in a name is not applied to a line headed by its entry. Residues count along the entry.
UniProt P19838, residues 41-351: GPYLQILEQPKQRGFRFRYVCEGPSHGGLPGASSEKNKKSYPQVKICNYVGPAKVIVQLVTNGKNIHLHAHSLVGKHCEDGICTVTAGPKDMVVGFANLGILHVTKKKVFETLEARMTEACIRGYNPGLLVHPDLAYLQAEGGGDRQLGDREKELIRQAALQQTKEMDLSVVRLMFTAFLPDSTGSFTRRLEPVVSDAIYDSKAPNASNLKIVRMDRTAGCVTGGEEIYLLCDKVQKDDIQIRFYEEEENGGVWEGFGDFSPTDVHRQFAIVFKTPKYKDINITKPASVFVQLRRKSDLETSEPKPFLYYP
UniProt Q04206, residues 1-290: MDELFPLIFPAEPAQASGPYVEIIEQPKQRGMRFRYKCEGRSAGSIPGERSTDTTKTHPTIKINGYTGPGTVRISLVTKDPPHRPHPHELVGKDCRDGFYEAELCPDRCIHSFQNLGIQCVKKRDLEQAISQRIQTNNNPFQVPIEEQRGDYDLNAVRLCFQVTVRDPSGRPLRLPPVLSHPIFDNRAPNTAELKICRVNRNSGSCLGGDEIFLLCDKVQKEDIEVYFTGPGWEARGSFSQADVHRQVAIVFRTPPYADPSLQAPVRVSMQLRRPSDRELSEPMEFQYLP
UniProt O00629: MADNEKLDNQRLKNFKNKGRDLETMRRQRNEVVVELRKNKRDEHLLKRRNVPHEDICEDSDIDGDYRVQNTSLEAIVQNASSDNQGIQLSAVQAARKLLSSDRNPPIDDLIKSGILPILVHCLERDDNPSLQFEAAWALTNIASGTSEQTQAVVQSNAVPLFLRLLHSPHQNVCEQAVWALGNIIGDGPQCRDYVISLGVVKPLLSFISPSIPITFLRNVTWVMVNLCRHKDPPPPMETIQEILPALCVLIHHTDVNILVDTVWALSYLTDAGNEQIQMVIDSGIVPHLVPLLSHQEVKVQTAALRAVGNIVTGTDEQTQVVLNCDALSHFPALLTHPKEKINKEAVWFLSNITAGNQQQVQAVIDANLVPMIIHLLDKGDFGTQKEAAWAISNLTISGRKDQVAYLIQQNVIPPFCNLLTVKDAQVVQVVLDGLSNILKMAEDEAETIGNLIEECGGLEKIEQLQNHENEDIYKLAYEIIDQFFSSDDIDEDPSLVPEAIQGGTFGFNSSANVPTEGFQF

Assay [1] concerns the target ΔNLS-p50/ΔNLS-p50 homodimer (human) (UniProt P19838). Put plainly: ELISA; NF-κB hetero/homodimers (200 ng) coated on MaxiSorp plates; His-importin α 1000 to 0 nM in PBST, room temperature 1 h; anti-6xHis-HRP; one-site specific binding fit; both purified.
Assay [2] has as its target ΔNLS-p65/ΔNLS-p65 homodimer (human) (UniProt Q04206). Described as above.
The target in assay [3] is His-ΔIBB-importin α3 (human) (UniProt O00629). Briefly: crystal structure; His-ΔIBB-importin α3 with p50- and p65-NLS peptides; 0.2 M ammonium sulfate, 0.1 M BIS-TRIS pH 6.5, 25% PEG 3350; PDB 7LF4; both purified.
The target is the same in assay [4]. Put plainly: crystal structure; His-ΔIBB-importin α3 with 2.5-fold molar excess of p50-NLS peptide; 0.2 M potassium thiocyanate, 20% PEG3350, 0.1 M BIS-TRIS pH 6.5; PDB 7LFC; both purified.

Results are given in words; binding and its absence hold for the method and conditions named. For some assays here: A result given as binding can be weak or reduced; the word gives no strength.

Consider “His-ΔIBB-importin α3 (from UniProt O00629) (domain or fragment)”, for which the binding result in assay [1] and in assay [2] was “no binding (tested: 1000 nM)” throughout.

Regarding DRHRIEEKRKRTYETFKSIMKK [p65-NLS peptide], the binding result in assay [3] is “binds”.

Consider DKEEVQRKRQKLMP [p50-NLS peptide], for which the binding result in assay [3] and in assay [4] was “binds” in each case.
